Data as given in PubChem BioAssay AID2012 (Sanford-Burnham Center for Chemical Genomics, 2009).
Some of the results follow.

What follows are compounds tested against Eukaryotic translation initiation factor 4H (Homo sapiens) (UniProt Q15056) (assay: eIF4H binding inhibition – biochemical, uHTS, fluorescence polarization, translation initiation inhibitor project, primary screen (AID 2012)). Settings: eIF4H fluorescence polarization binding assay; confirmation average; at 20 µM; stronger effect = higher value.
For `COc1ccc(OP(C)(=O)Nc2ccc(SC(F)(F)F)cc2)cc1` (stereo not drawn), the inhibition was 1%.
With `CC(C)(C)C(=O)NC(Sc1ccccc1)C(Cl)(Cl)Cl` (stereo not drawn) the inhibition was -13.6%.
`O=[N+]([O-])c1ccc(O)c(/C=N/Nc2ccc([N+](=O)[O-])cc2[N+](=O)[O-])c1` showed an inhibition of -3.6%.
For `CC(=O)NC(SC(=S)N(C)C)C(Cl)(Cl)Cl` (stereo not drawn), the inhibition was 79.9%.
`O=[N+]([O-])c1cc([N+](=O)[O-])c(CCN2CCOCC2)c([N+](=O)[O-])c1` was tested, and the inhibition was 96.6%.
In the case of `O=[N+]([O-])c1cc([N+](=O)[O-])c(-c2ccn[nH]2)s1`, the inhibition is reported as 102%.
`CCOC(=O)Nc1ccc([As](=O)(O)O)c(O)c1` gave an inhibition of 95.4%.
Work on `CS(=O)(=O)c1cc([N+](=O)[O-])c2no[n+]([O-])c2c1` yielded an inhibition of 104%.
